From PubChem BioAssay AID2549 (National Center for Advancing Translational Sciences (NCATS), 2010)
The whole screen tested about 240,000 compounds, of which about 1,300 (0.54%) were called active. The shares of active, inactive and inconclusive entries below differ from those in the screen. Calls follow the shape of the dose curve; as a rule, active = well fitted inhibition curve with a large enough effect; inconclusive = small, poorly fitted or top-dose-only effect; inactive = flat fitted curve, though single readings scatter. Potencies of inconclusive entries are doubtful fits and often do not repeat.

Protein sequences, listed by entry. Tags and fused reporters are not part of them. Lines headed by an entry give the natural chain unless they say otherwise; changes in a name come on top.
UniProt P46063: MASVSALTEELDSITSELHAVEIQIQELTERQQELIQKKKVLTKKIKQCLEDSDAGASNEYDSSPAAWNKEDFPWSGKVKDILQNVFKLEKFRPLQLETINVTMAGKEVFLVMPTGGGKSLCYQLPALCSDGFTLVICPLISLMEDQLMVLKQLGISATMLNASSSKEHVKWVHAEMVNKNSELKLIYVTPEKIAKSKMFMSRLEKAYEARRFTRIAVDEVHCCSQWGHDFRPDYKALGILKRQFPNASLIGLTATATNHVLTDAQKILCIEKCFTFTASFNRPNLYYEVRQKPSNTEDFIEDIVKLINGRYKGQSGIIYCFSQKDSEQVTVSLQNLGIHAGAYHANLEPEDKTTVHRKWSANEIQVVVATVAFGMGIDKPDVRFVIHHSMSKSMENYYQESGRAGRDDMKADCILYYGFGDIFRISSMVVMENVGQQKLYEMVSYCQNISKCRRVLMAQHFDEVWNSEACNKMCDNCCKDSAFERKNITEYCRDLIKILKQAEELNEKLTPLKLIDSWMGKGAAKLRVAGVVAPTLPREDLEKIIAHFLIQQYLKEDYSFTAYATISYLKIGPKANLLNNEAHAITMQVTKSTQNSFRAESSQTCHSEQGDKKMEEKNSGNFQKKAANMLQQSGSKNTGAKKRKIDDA

Target: ATP-dependent DNA helicase Q1 (Homo sapiens) (UniProt P46063)
Assay: qHTS Assay for Inhibitors of RecQ-Like Dna Helicase 1 (RECQ1); also: nearly all actives have a fitted effect of over 30% in size;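 as to activity, negative = inhibition: plate controls were vehicle for no effect and no enzyme for full effect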
Conditions: RECQ1 DNA unwinding, red fluorescence kinetic read; activity, negative = inhibition: at 57.3 µM (top of the series); series mostly up to 57.3 µM
How it was run: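 50 nM RECQ1T1 preincubated 15 min with compound in Tris pH 8.0 buffer with MgCl2, DTT, Tween-20 and 2.5 ug/ml poly(dI-dC); started with 200 nM TAMRA/BHQ-2 forked duplex and 2 mM ATP. Unwinding read as fluorescence (525/598 nm), two reads 2 h apart.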
Potency is read from the fitted curve at half-maximal effect.

| Structure (SMILES) | Potency | activity, negative = inhibition | outcome |
| --- | --- | --- | --- |
| [O-][n+]1onc2c1CCC(=N/O)/C2=N\Nc1ccccc1 | inconclusive: 39.8 µM [inhibitor, single point] |  |  |
| CCn1cc(C(=O)NCCCN2CCCCCC2)c(=O)c2cc(S(=O)(=O)N3CCc4ccccc4C3)ccc21 | inconclusive: 14.1 µM [inhibitor, partial curve] |  |  |
| Cc1cccc(NC(=S)NC(=O)/C=C/c2ccco2)c1 |  | inactive: -7.28% |  |
| N=C1/C(=C\c2ccc(-c3cccc(C(=O)O)c3)o2)C(=O)N=C2SC=C(c3ccccc3)N12 | inconclusive: 31.6 µM [inhibitor, single point] |  |  |
| CC1=NN(c2ccc(Cl)c(C(=O)O)c2)C(=O)/C1=C\c1ccc(-c2ccc(C(=O)O)cc2)o1 | inconclusive: 35.5 µM [inhibitor, single point] |  |  |
| O=C(C1CC1)N1CCN=C1SCc1cccc(F)c1 | inconclusive: 22.4 µM [inhibitor, partial curve, poor fit] |  |  |
| COc1cc(C2CC(=O)N3CN(Cc4ccco4)CSC3=C2C#N)ccc1OCc1ccccc1 (stereo not drawn) | inconclusive: 35.5 µM [inhibitor, single point] |  |  |
| CCNC(=O)c1ccc(-n2nc(C)cc2-c2ccccc2)cc1 | inconclusive: 1.26 µM [inhibitor, full curve, poor fit] |  |  |
| CC1CCCC(NC(=O)COC(=O)[C@@H]2CC(O)CN2S(=O)(=O)c2ccc3c(c2)OCCO3)C1C (stereo partly drawn) |  | inactive: -3.5% |  |
| COc1ccc(OC)c(-c2nc3cc4ccccc4cc3nc2-c2ccccc2)c1 | active: 3.16 µM |  |  |
| Cc1sc(NC(=O)c2ccco2)c(C(c2cccnc2)N2CCN(c3ccc(F)cc3)CC2)c1C (stereo not drawn) | active: 39.8 µM |  |  |
| C(=C\c1ccco1)/c1ccc2ccccc2n1 | active: 8.91 µM |  |  |
| Cc1nn(Cc2ccccc2)c(Cl)c1C(=O)NCc1ccc(C)n1C |  | inactive: -0.838% |  |
| CN(C)CCOc1nc(-c2ccccc2)nc2c1oc1ccccc12 |  | inactive: 5.47% |  |
| Cc1ccc(NC(=O)c2cccc(S(=O)(=O)N(C)c3ccccc3)c2)cc1S(=O)(=O)N1CCOCC1 | inconclusive: 0.1 µM [inhibitor, full curve] |  |  |
| CN(C)CC/C=C1\c2ccccc2COc2ccccc21 | inconclusive: 28.2 µM [inhibitor, partial curve] |  |  |
| O=C(CCN1CCN(C(=O)c2ccco2)CC1)Nc1ccc(F)cc1 | inconclusive: 39.8 µM [inhibitor, single point] |  |  |
| CCN1CC2([N+](=O)[O-])C=CC(=O)C([N+](=O)[O-])(C1)C2CC(=O)c1ccccc1 (stereo not drawn) |  | inactive: -12% |  |
| Cc1cc(-n2c(=O)c(C#N)cc3c(=O)n4ccccc4nc32)no1 | inconclusive: 20 µM [inhibitor, partial curve] |  |  |
| O=C(NC1CC2CCCC(C1)N2C(=O)Nc1ccc(Cl)c(C(F)(F)F)c1)C1CC1 (stereo not drawn) | inconclusive: 39.8 µM [inhibitor, partial curve] |  |  |
| CCOc1ccc(C(=O)c2ccc(O)c(O)c2O)cc1 | inconclusive: 5.62 µM [inhibitor, partial curve, poor fit] |  |  |
| Cc1cccc(NCc2ccccc2O)c1 |  | inconclusive: -32.3% [inhibitor] |  |
| CC1CCCCC1NC(=O)COC(=O)c1c2c(nc3ccccc13)/C(=C/c1ccco1)CC2 (stereo not drawn) | active: 12.6 µM |  |  |
| CC(C)(C)NC(=O)CSc1nnc(NC(=O)CCn2cnc3ccccc3c2=O)s1 | inconclusive: 0.126 µM [inhibitor, full curve, poor fit] |  |  |
| CC(C)CCn1c(N)c(S(=O)(=O)c2cccs2)c2nc3ccccc3nc21 | inconclusive: 39.8 µM [inhibitor, single point] |  |  |

| Structure (SMILES) | Potency | activity, negative = inhibition | outcome |
| --- | --- | --- | --- |
| N=C1C(c2ccccc2)=C(O)CN1c1cccc(S(=O)(=O)Nc2cccc(C(F)(F)F)c2)c1 | inconclusive: 2.82 µM [inhibitor, full curve] |  |  |
| NC(CSSCC(N)C(=O)O)C(=O)O (stereo not drawn) |  | inactive: -1.69% |  |
| CNC1CC(N)[C@H](O)[C@@H](O[C@@H]2OC(CO)C3OC4(OC(C(N)CO)C(O)C(O)C4O)O[C@@H]3[C@H]2O)C1O (stereo partly drawn) |  | inactive: -14% |  |
| Cc1ccc(CNC(=O)[C@]2(C(F)(F)F)C[C@H](CCc3ccccc3)CCCO2)o1 |  |  | inactive |
| Cc1ccc(/C=N/Nc2cc(C)nc(NCc3ccccc3)n2)cc1 |  | inactive: -17.3% |  |
| CC(=O)NCCNc1ncnc2ccc(-c3ccoc3)cc12 |  |  | inactive |
| COc1ccc(C2Nc3ccccc3C(=O)N2Cc2ccco2)cc1COc1ccccc1F (stereo not drawn) | inconclusive: 0.158 µM [inhibitor, full curve, poor fit] |  |  |
| CCN(CC)S(=O)(=O)c1ccc(C(=O)NCC(c2cccs2)N2CCOCC2)cc1 (stereo not drawn) | inconclusive: 0.178 µM [inhibitor, full curve] |  |  |
| N#CC(=C1CCCC1)c1nc(-c2ccccc2)cs1 | inconclusive: 39.8 µM [inhibitor, single point] |  |  |
| COc1ccc(CNC(=O)c2cc3c(=O)n4ccccc4nc3n(Cc3cccnc3)c2=N)cc1 | active: 14.1 µM |  |  |
| C=C[C@H]1CCC=C2C(=O)CCC[C@@H]21 |  | inactive: -0.209% |  |
| CCN1/C(=C/c2ccc3ccccc3[n+]2CC)C=Cc2ccccc21 | inconclusive: 39.8 µM [inhibitor, single point] |  |  |
| CCOC(=O)C1=C(O)/C(=C\c2ccc(CNC(=O)C(=O)Nc3ccccc3)o2)N=C1C |  | inactive: -0.903% |  |
| CC(C)OC(=O)c1cn(Cc2c(F)cccc2F)c2sc(-c3ccc(NC(=O)C(C)C)cc3)c(CN(C)Cc3ccccc3)c2c1=O |  | inactive: -0.881% |  |
| CCN1C(c2ccccc2)=C(c2ccccc2)S/C1=C/C=C1\SC(=S)N(C)C1=O | inconclusive: 15.8 µM [inhibitor, partial curve, poor fit] |  |  |
| CCN(C(=O)CN1CCN(c2ccc(O)cc2)CC1)c1c(N)n(Cc2ccccc2)c(=O)[nH]c1=O | inconclusive: 12.6 µM [inhibitor, partial curve] |  |  |
| C/C(=N\N=C(c1ccccc1)c1ccccc1)c1cccs1 | active: 17.8 µM |  |  |
| Cc1cccc(Cn2cnc3c(NS(C)(=O)=O)c(C)c(C)cc32)c1 | inconclusive: 11.2 µM [inhibitor, partial curve] |  |  |
| CCc1nnc(NC(=O)c2cc(-c3ccco3)nc3ccccc23)s1 | inconclusive: 25.1 µM [inhibitor, single point] |  |  |
| COc1ccc(C(=O)c2ccc(O)cc2)c(O)c1O | active: 14.1 µM |  |  |
| CCNc1ccc(Br)cc(C(=O)/C=C/c2ccc3c(c2)OCO3)c1=O | inconclusive: 39.8 µM [inhibitor, single point] |  |  |
| CC1(OC(=O)c2cccs2)C(=O)C=C2C=C3CCCN3C=C2C1=O (stereo not drawn) | active: 25.1 µM |  |  |
| Oc1ccc(CN2CCc3ccccc3C2)c2cccnc12 |  | inactive: 2.8% |  |
| CCn1c(/C=C/c2ccccc2[N+](=O)[O-])nc2ccccc2c1=O |  | inactive: -3.84% |  |
| Fc1ccccc1OCCCCSc1ncccn1 | inconclusive: 39.8 µM [inhibitor, single point] |  |  |

| Structure (SMILES) | Potency | activity, negative = inhibition | outcome |
| --- | --- | --- | --- |
| Cc1cc2nc3c(=O)[nH]c(=O)[nH]c3nc2c([N+](=O)[O-])c1N | inconclusive: 39.8 µM [inhibitor, single point] |  |  |
| COC(=O)CCCC1=CC2=CC(=O)C(C)(OC(=O)c3ccco3)C(=O)C2=CO1 (stereo not drawn) | inconclusive: 25.1 µM [inhibitor, single point] |  |  |
| Cc1ccc(F)c(C2C3C=CCCC3(C)C(=O)N2Cc2ccccc2)c1 (stereo not drawn) |  |  | inactive |
| C(=C\c1ccco1)/C=N/n1cnnc1 |  | inactive: -11.2% |  |
| O=C(O)CCC(=O)Nc1ccc(Cc2ccc(NC(=O)CCC(=O)O)c(O)c2)cc1O |  |  | inactive |
| O=C(N/N=C/c1ccccc1O)C1SCCCS1 |  | inactive: -4.43% |  |
| O=C(O)c1ccc(N=c2oc3cc(O)ccc3cc2C(=O)NCc2ccccc2)cc1 |  | inactive: -0.526% |  |
| COc1cc(/C=N/NC(=O)c2ccc(COc3ccccc3Cl)o2)cc(Br)c1O | inconclusive: 39.8 µM [inhibitor, single point] |  |  |
| Cc1ccc(OCC(=O)N/N=C/C=C/c2ccco2)cc1 | active: 8.91 µM |  |  |
| CC1=CC2=NC(=O)CC(C)(C(=O)N(CC(=O)NC(C)(C)C)C3CCCC3)N2C=C1 (stereo not drawn) | inconclusive: 0.708 µM [inhibitor, single point] |  |  |
| CCN(CC)C(=O)c1sc2c(c1C)c(=O)n(-c1ccc(C)c(C)c1)c(=O)n2CC(=O)NCC1CCCO1 (stereo not drawn) | inconclusive: 0.158 µM [inhibitor, full curve] |  |  |
| O=C(O)c1ccccc1/C=N/NC(=O)c1cc(-c2ccco2)nc2ccccc12 | active: 22.4 µM |  |  |
| COc1cc(NCCCC(C)N)c2ncccc2c1 (stereo not drawn) | inconclusive: 39.8 µM [inhibitor, single point] |  |  |
| Cc1noc(NS(=O)(=O)c2ccc(NC(=O)CSc3nc4ccccc4[nH]3)cc2)c1C |  |  | inactive |
| O=S1(=O)Nc2c(ccc3cccnc23)-c2ccccc21 | inactive |  |  |
| COc1ccc(C(=O)/C=C/c2ccc(OC)c(CN3CCOCC3)c2)cc1 | inconclusive: 0.251 µM [inhibitor, full curve] |  |  |
| Cc1cc(C)c(C#N)c(SCC(=O)c2ccccc2)n1 | inconclusive: 39.8 µM [inhibitor, single point] |  |  |
| COc1cccc(/C=N/N2C(=O)C3C4c5ccccc5C(c5ccccc54)C3C2=O)c1OC (stereo not drawn) |  |  | inactive |
| C#Cc1ccc([C@H]2C=C(C(=O)OCC=C)O[C@@H](OCC)[C@@H]2CCCO)cc1 | active: 22.4 µM |  |  |
| Cc1ccc(C2(O)C(=O)c3ccccc3C2=O)c(O)c1C | inconclusive: 39.8 µM [inhibitor, single point] |  |  |
| Cc1cc(O)c(C=O)c2c1C(=O)Oc1c(COC(=O)/C=C/C(=O)O)c(O)c(C(=O)O)c(C)c1O2 | active: 3.98 µM |  |  |
| COc1ccc(NC(=O)c2cc(-c3ccc(C)o3)nc3ccccc23)cc1OC |  | inactive: -5.11% |  |
| O=C(c1cccs1)N1CCN(Cc2ccccn2)CC1 |  | inactive: 15.8% |  |

By substructure: the compounds so far containing a Cl atom (four)

| Structure (SMILES) | Potency | activity, negative = inhibition | outcome |
| --- | --- | --- | --- |
| CC1=NN(c2ccc(Cl)c(C(=O)O)c2)C(=O)/C1=C\c1ccc(-c2ccc(C(=O)O)cc2)o1 | inconclusive: 35.5 µM [inhibitor, single point] |  |  |
| Cc1nn(Cc2ccccc2)c(Cl)c1C(=O)NCc1ccc(C)n1C |  | inactive: -0.838% |  |
| O=C(NC1CC2CCCC(C1)N2C(=O)Nc1ccc(Cl)c(C(F)(F)F)c1)C1CC1 (stereo not drawn) | inconclusive: 39.8 µM [inhibitor, partial curve] |  |  |
| COc1cc(/C=N/NC(=O)c2ccc(COc3ccccc3Cl)o2)cc(Br)c1O | inconclusive: 39.8 µM [inhibitor, single point] |  |  |
